Measurements from patent publication US20220151274A1, “PREPARATIONS WITH C-METHYL FLAVONOIDS” (BRAIN AG, priority 2018, published 2022).

How the values were obtained:
[1] = Tasting of high-purity Pinoquercetin + potassium chloride (KCl); format: in vivo
Procedure: The sensory evaluation of the samples was performed twice by a team of seven experienced assessors.

[2] = Tasting of extracts containing Pinoquercetin (natural taste, sip and spit); format: in vivo; settings: ethanol below 0.5%, vs 0.5% ethanol in water, 3-5 assessors

Compound | average confidence score ([1]; 25 μM (8 ppm) with 1.5% potassium chloride in spring water) | average confidence score ([1]; 50 μM (16 ppm) with 1.5% potassium chloride in spring water) | Descriptive evaluation of taste ([2]; 3 mg/l) | Descriptive evaluation of taste ([2]; 7.5 mg/l)
Cc1c(O)cc2oc(-c3ccc(O)c(O)c3)c(O)c(=O)c2c1O [Pinoquercetin] | confidence score: fairly sure dominant | confidence score: fairly sure dominant | – | –
Pinoquercetin | – | – | neutral | neutral
